In publication PMC7652414:

Key:
[1] = target: KAP-GFP-His (Chlamydomonas reinhardtii); experiment: pull-down; three subunits co-expressed in Sf9, co-purified using MBP and Ni affinity columns consecutively; SDS-PAGE with Coomassie staining or immunoblotting
[2] = target: KAP-GFP-His (Chlamydomonas reinhardtii); experiment: pull-down; FLA8-RFP/KAP-GFP-His or FLA10-MBP/KAP-GFP-His co-expressed in Sf9; lysis buffer 80 mM Pipes pH 6.9, 150 mM KCl, 1 mM MgCl2, 1 mM EGTA, 0.1 mM ATP, 0.1% Tween-20, 10 mM imidazole; pulled down by Ni beads; immunoblot

binding [1]: binds
binding [2]: binds
B1: FLA10-MBP (protein, UniProt P46869 1-786)
chain: MPPAGGGSESVKVVVRCRPLNGKEKADGRSRIVDMDVDAGQVKVRNPKADASEPPKAFTFDQVYDWNCQQRDVFDITARPLIDSCIEGYNGTIFAYGQTGTGKSHTMEGKDEPPELRGLIPNTFRYVFEIIARDSGTKEFLVRSSYLEIYNEEVRDLLGKDHSKKMELKESPDRGVYVKDLSQFVCKNYEEMNKVLLAGKDNRQVGATLMNQDSSRSHSIFTITIECIEKLESAAAQKPGAKKDDSNHVRVGKLNLVDLAGSERQDKTGATGDRLKEGIKINLSLTALGNVISALVDGKSGHIPYRDSKLTRLLQDSLGGNTKTVMVANIGPADWNYDETMSTLRYANRAKNIQNKPKINEDPKDAMLRQFQEEIKKLKEQLAARAAGGGGPITMPSGGGSPTQKIVERTEEVDPDIDAIKAQMRAELEAKMKSDISTEALDKAREEAEAAAKKQLQAIIDDQGKTEAQKKAARDALKKQAEEARAIAGAIEKEKQEKAVLESRIKEMEGKIVVGGVNMLEKVDELKQKSEDIKREAAIRKRQEEEAKRRLEELQAAQVDADAKFASLDEEINVKSRQLKKLFEKYQGKKGELADLQEQFQREREGMLEDYRILTQQIKLKNLIIACFIPPDYQDKIMQHCHWQDYDSSWNIDCIAYAGNAVRTNQELQAQEDKEHDAAAENERLKNCFFSYEQFEAAGAGSKQGGGGGGGGGGAARPGSSAGRAVGSAARRTGGKAGGKDITDIGSLRDSVNWGDDDDKKKGAIPKAKGLVKDTVDPRLRASKLK

Results are given in words; binding and its absence hold for the method and conditions named. In cells and extracts the contact can be indirect. Binding calls can cover weak binding; strength is not graded here. Where a sequence is shown, tags or fusion partners need not be part of it.
